PubChem BioAssay AID504791, Drosophila RNAi Screening Center | 2011

Aim: 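Factors in Argonaute-based small RNA production and activity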 (primary screen)
Cells: Drosophila S2-derived reporter cells
Knock-down reagent: long dsRNA against Drosophila genes, about 150-250 ng dsRNA per well (siRNA assay); about 80-120 ng (miRNA assay)
Timing: about 5 days (siRNA assay); about 4 days (miRNA assay)
Treatment: copper sulfate induction of reporters: 25 µM (siRNA assay); 200 mM stated (miRNA assay), 1-2 days before reading
Measured: 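Per-well ratio of Renilla over firefly light, expressed relative to that plate's average ratio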
Units: stable assay Renilla, run 1 in luminescence; stable assay firefly, run 1 in luminescence
Active means: 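First-pass picks had plate-scaled ratios over 1.5 for the siRNA assay, over 1.6 for the miRNA assay, or under 0.6; two distinct dsRNAs had to score alike on retest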
In all, the deposit lists about 23,000 reagents; shown is an unselected part of those with a known target gene and a result. Over the whole deposit, 199 (0.86%) were called active. 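Plate-scaled ratios behind the calls are not deposited; printed light signals are raw; many rows marked increased or decreased are still called inactive.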 The numbers tell different reagents against one gene apart. No sequences are given here. Not given: the direction of the score.

What did the screen give for AttC (Attacin-C)?
stable assay Renilla, run 1: 6315; stable assay firefly, run 1: 3.39e5; Outcome: inactive

For koi (klaroid), what was measured?
stable assay Renilla, run 1: 6350; stable assay firefly, run 1: 3.66e5; Outcome: inactive

Which result is listed for Tes (Testin)?
stable assay Renilla, run 1: 6474; stable assay firefly, run 1: 3.10e5; Outcome: inactive

What did the screen give for Mer (Merlin)?
stable assay Renilla, run 1: 8440; stable assay firefly, run 1: 5.36e5; Outcome: inactive

With CG31926, how do the results read?
stable assay Renilla, run 1: 7993; stable assay firefly, run 1: 3.89e5; Outcome: inactive

For Cipc (Clock interacting protein circadian) #1, what does the deposit list?
stable assay Renilla, run 1: 7134; stable assay firefly, run 1: 5.52e5; Outcome: inactive

For Cipc (Clock interacting protein circadian) #2, how do the results read?
stable assay Renilla, run 1: 7048; stable assay firefly, run 1: 3.83e5; Outcome: inactive

What is on record for ECSIT?
stable assay Renilla, run 1: 7127; stable assay firefly, run 1: 3.93e5; Outcome: inactive

With CG12107, what does the deposit list?
stable assay Renilla, run 1: 8067; stable assay firefly, run 1: 6.03e5; Outcome: inactive

What is on record for Panx (Panoramix)?
stable assay Renilla, run 1: 6474; stable assay firefly, run 1: 3.86e5; Outcome: inactive

For CG32983, what was measured?
stable assay Renilla, run 1: 10303; stable assay firefly, run 1: 7.37e5; Outcome: inactive

What is on record for chico?
stable assay Renilla, run 1: 29098; stable assay firefly, run 1: 4.65e5; Outcome: inactive

What is on record for CG1909?
stable assay Renilla, run 1: 5076; stable assay firefly, run 1: 4.57e5; Outcome: inactive

For CG7557, what does the deposit list?
stable assay Renilla, run 1: 7163; stable assay firefly, run 1: 3.45e5; Outcome: inactive

Single entries from the entries so far:
Under “stable assay Renilla, run 1”, ECSIT has 7127
Entry of Cipc (Clock interacting protein circadian) #2 under “stable assay firefly, run 1”: 3.83e5
Value for CG7557 under “stable assay firefly, run 1”: 3.45e5

Further reagents:
With TppII (Tripeptidyl-peptidase II), how do the results read?
stable assay Renilla, run 1: 7636; stable assay firefly, run 1: 4.40e5; Outcome: inactive

For TwdlD (TweedleD), what was measured?
stable assay Renilla, run 1: 6036; stable assay firefly, run 1: 2.88e5; Outcome: inactive

Which result is listed for sni (sniffer)?
stable assay Renilla, run 1: 7587; stable assay firefly, run 1: 5.67e5; Outcome: inactive

What is on record for CASK #1?
stable assay Renilla, run 1: 2936; stable assay firefly, run 1: 3.13e5; Outcome: inactive

What did the screen give for CASK #2?
stable assay Renilla, run 1: 8546; stable assay firefly, run 1: 5.50e5; Outcome: inactive

What did the screen give for CASK #3?
stable assay Renilla, run 1: 7682; stable assay firefly, run 1: 3.82e5; Outcome: inactive

For CASK #4, how do the results read?
stable assay Renilla, run 1: 9922; stable assay firefly, run 1: 6.17e5; Outcome: inactive

With Ssb-c31a (Single stranded-binding protein c31A), what does the deposit list?
stable assay Renilla, run 1: 6548; stable assay firefly, run 1: 3.63e5; Outcome: inactive

For Uck (Uridine-cytidine kinase) #1, what does the deposit list?
stable assay Renilla, run 1: 5978; stable assay firefly, run 1: 5.76e5; Outcome: inactive

How did the screen score Uck (Uridine-cytidine kinase) #2?
stable assay Renilla, run 1: 6487; stable assay firefly, run 1: 3.99e5; Outcome: inactive

How did the screen score CG17994?
stable assay Renilla, run 1: 8259; stable assay firefly, run 1: 4.20e5; Outcome: inactive

With CG11211, what does the deposit list?
stable assay Renilla, run 1: 6562; stable assay firefly, run 1: 4.16e5; Outcome: inactive

For CG4000 #1, how do the results read?
stable assay Renilla, run 1: 3055; stable assay firefly, run 1: 3.53e5; Outcome: inactive

How did the screen score CG4000 #2?
stable assay Renilla, run 1: 8916; stable assay firefly, run 1: 4.49e5; Outcome: inactive
